In the supplement of paper PMC6078165:
The reference is the same well before dosing, and untreated signal decays as well.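 Fibroblast labels name human fibroblasts: mostly primary ones from tissues such as uterus (C12385, HUF), lung (H6013), bone (Hs27A), adrenal (HADF) and skin (WS1), plus mammary HMF and breast cancer-associated Hs343T. The cancer cells are basal-like or mesenchymal-like triple-negative breast cancer lines. The paper calls a changed response a hit when it shifts by more than 3x the replicate standard deviation. The tissue of the other fibroblasts is not given here.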

System: MDAMB231
Experiment: relative JC-1 red fluorescence (viability) vs pre-drug, coculture with fibroblast (fraction); higher = more viable cancer cells
Description: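 JC-1 labelled TNBC cells cocultured 1:1 (1,500 cells each) with CellTrace Violet stained primary or stromal fibroblasts in 384-well plates in FluoroBrite medium, treated with one of 42 anticancer drugs at 0.1, 1, 10 or 100 uM. JC-1 red fluorescence (mitochondrial integrity in cancer cells only) was read by plate reader every 8 h for 72 h. Values are normalised to each well's pre-drug value. The stock of one drug was tenfold lower, so its dose labels may be too high.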

O=C(O)CCCc1ccc(N(CCCl)CCCl)cc1 [Chlorambucil]
relative JC-1 red fluorescence
Conditions | 8 h | 16 h | 24 h | 32 h | 40 h | 48 h | 56 h | 64 h | 72 h
0.1 µM, coculture fibroblast: C12385 | 0.788 | 0.716 | 0.829 | 0.695 | 0.659 | 0.662 | 0.642 | 0.68 | 0.681
0.1 µM, coculture fibroblast: H6013 | 0.862 | 0.8345 | 0.8113 | 0.79205 | 0.758 | 0.7584 | 0.74 | 0.7238 | 0.6829
0.1 µM, coculture fibroblast: H6019 | 0.7798 | 0.7046 | 0.776 | 0.6901 | 0.6634 | 0.6637 | 0.6335 | 0.6379 | 0.6073
0.1 µM, coculture fibroblast: H6076 | 0.836 | 0.784 | 0.773 | 0.776 | 0.774 | 0.773 | 0.796 | 0.801 | 0.686
0.1 µM, coculture fibroblast: H6231 | 0.837 | 0.752 | 0.704 | 0.67 | 0.63 | 0.606 | 0.566 | 0.557 | 0.538
0.1 µM, coculture fibroblast: HADF | 0.853 | 0.826 | 0.782 | 0.758 | 0.72 | 0.693 | 0.669 | 0.659 | 0.615
0.1 µM, coculture fibroblast: HCFa | 0.8654 | 0.8104 | 0.7831 | 0.7513 | 0.707 | 0.6745 | 0.6479 | 0.6214 | 0.5814
0.1 µM, coculture fibroblast: HCPF | 0.844 | 0.756 | 0.691 | 0.667 | 0.612 | 0.568 | 0.536 | 0.511 | 0.495
0.1 µM, coculture fibroblast: HHSteC | 0.8896 | 0.8546 | 0.8079 | 0.7643 | 0.7322 | 0.7151 | 0.6708 | 0.6549 | 0.624
0.1 µM, coculture fibroblast: HMF | 0.8339 | 0.775 | 0.733 | 0.708 | 0.678 | 0.656 | 0.637 | 0.633 | 0.629
0.1 µM, coculture fibroblast: HPFa | 0.91 | 0.883 | 0.848 | 0.807 | 0.788 | 0.753 | 0.706 | 0.671 | 0.616
0.1 µM, coculture fibroblast: HUF | 0.791 | 0.686 | 0.7116 | 0.586 | 0.53 | 0.521 | 0.482 | 0.496 | 0.483
0.1 µM, coculture fibroblast: Hs5 | 0.8159 | 0.775 | 0.744 | 0.711 | 0.68 | 0.634 | 0.614 | 0.594 | 0.573
0.1 µM, coculture fibroblast: Hs27A | 0.8616 | 0.82611 | 0.792 | 0.776 | 0.7353 | 0.709 | 0.689 | 0.672 | 0.621
0.1 µM, coculture fibroblast: Hs343T | 0.895 | 0.781 | 0.711 | 0.655 | 0.599 | 0.547 | 0.496 | 0.471 | 0.443
0.1 µM, coculture fibroblast: WS1 | 0.7792 | 0.7322 | 0.72 | 0.634 | 0.593 | 0.591 | 0.551 | 0.554 | 0.532
1 µM, coculture fibroblast: C12385 | 0.758 | 0.7315 | 0.6141 | 0.6059 | 0.539 | 0.4976 | 0.446 | 0.434 | 0.415
1 µM, coculture fibroblast: H6013 | 0.899 | 0.862 | 0.793 | 0.757 | 0.709 | 0.6802 | 0.66 | 0.6351 | 0.603
1 µM, coculture fibroblast: H6019 | 0.747 | 0.675 | 0.601 | 0.573 | 0.511 | 0.48 | 0.425 | 0.398 | 0.347
1 µM, coculture fibroblast: H6076 | 0.943 | 0.873 | 0.807 | 0.781 | 0.726 | 0.679 | 0.637 | 0.622 | 0.607
1 µM, coculture fibroblast: H6231 | 0.898 | 0.803 | 0.734 | 0.7 | 0.654 | 0.618 | 0.593 | 0.5751 | 0.556
1 µM, coculture fibroblast: HADF | 0.888 | 0.84 | 0.779 | 0.769 | 0.72361 | 0.66682 | 0.6495 | 0.626 | 0.579
1 µM, coculture fibroblast: HCFa | 0.8858 | 0.8138 | 0.75345 | 0.712 | 0.661 | 0.6045 | 0.578 | 0.54 | 0.494
1 µM, coculture fibroblast: HCPF | 0.88 | 0.768 | 0.688 | 0.661 | 0.592 | 0.551 | 0.513 | 0.482 | 0.457
1 µM, coculture fibroblast: HHSteC | 0.898 | 0.826 | 0.778 | 0.729 | 0.677 | 0.641 | 0.593 | 0.575 | 0.531
1 µM, coculture fibroblast: HMF | 0.8966 | 0.788 | 0.699 | 0.652 | 0.59 | 0.543 | 0.489 | 0.464 | 0.438
1 µM, coculture fibroblast: HPFa | 0.953 | 0.9187 | 0.854 | 0.796 | 0.762 | 0.71 | 0.643 | 0.608 | 0.55
1 µM, coculture fibroblast: HUF | 0.845 | 0.773 | 0.718 | 0.618 | 0.596 | 0.58 | 0.505 | 0.478 | 0.445
1 µM, coculture fibroblast: Hs5 | 0.893 | 0.811 | 0.7338 | 0.68658 | 0.629 | 0.577 | 0.531 | 0.505 | 0.466
1 µM, coculture fibroblast: Hs27A | 0.88 | 0.83 | 0.8126 | 0.796 | 0.765 | 0.708 | 0.73 | 0.716 | 0.6818
1 µM, coculture fibroblast: Hs343T | 0.916 | 0.842 | 0.784 | 0.754 | 0.711 | 0.669 | 0.61 | 0.581 | 0.544
1 µM, coculture fibroblast: WS1 | 0.7562 | 0.691 | 0.597 | 0.556 | 0.503 | 0.468 | 0.416 | 0.398 | 0.366
